Data on four sequences can be found in paper PMC8384837.

Holding throughout (settings): yeast three-hybrid, YBZ-1, SC-Leu-His + 0.5 mM 3-AT, 4 days
Assay [1] deals with T1, PUM1 PUF domain R2-KLV N899K + Y900L + Q903V (UniProt Q14671).
T1 sequence: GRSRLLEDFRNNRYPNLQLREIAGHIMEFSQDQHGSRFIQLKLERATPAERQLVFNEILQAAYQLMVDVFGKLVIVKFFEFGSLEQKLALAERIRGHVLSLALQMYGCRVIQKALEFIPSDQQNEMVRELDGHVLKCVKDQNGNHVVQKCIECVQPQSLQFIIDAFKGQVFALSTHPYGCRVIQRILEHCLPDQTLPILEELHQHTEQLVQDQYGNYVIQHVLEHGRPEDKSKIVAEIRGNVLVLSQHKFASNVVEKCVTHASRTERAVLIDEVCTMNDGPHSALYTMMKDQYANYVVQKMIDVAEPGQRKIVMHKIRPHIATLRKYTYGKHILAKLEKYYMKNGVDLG

In assay [2] the target is T2, PUM1 PUF domain R2-KVA N899K + Y900V + Q903A (UniProt Q14671).
T2 sequence: T1 sequence with L73V, V76A

Assay [3] deals with T3, PUM1 PUF domain R2-MVW N899M + Y900V + Q903W (UniProt Q14671).
T3 sequence: T1 sequence with K72M, L73V, V76W

For assay [4], the target named is T4, PUM1 PUF domain R2-PVM N899P + Y900V + Q903M (UniProt Q14671).
T4 sequence: T1 sequence with K72P, L73V, V76M

The target of assay [5] is T5, PUM1 PUF domain R2-PWL N899P + Y900W + Q903L (UniProt Q14671).
T5 sequence: T1 sequence with K72P, L73W, V76L

In assay [6] the target is T6, PUM1 PUF domain R2-QWW N899Q + Y900W + Q903W (UniProt Q14671).
T6 sequence: T1 sequence with K72Q, L73W, V76W

The target in assay [7] is T7, PUM1 PUF domain R2-RKC N899R + Y900K + Q903C (UniProt Q14671).
T7 sequence: T1 sequence with K72R, L73K, V76C

Assay [8] concerns the target T8, PUM1 PUF domain R2-RKS N899R + Y900K + Q903S (UniProt Q14671).
T8 sequence: T1 sequence with K72R, L73K, V76S

In assay [9] the target is T9, PUM1 PUF domain R2-RTS N899R + Y900T + Q903S (UniProt Q14671).
T9 sequence: T1 sequence with K72R, L73T, V76S

Assay [10] has as its target T10, PUM1 PUF domain R2-RVE N899R + Y900V + Q903E (UniProt Q14671).
T10 sequence: T1 sequence with K72R, L73V, V76E

Assay [11] concerns the target T11, PUM1 PUF domain R2-SIP N899S + Y900I + Q903P (UniProt Q14671).
T11 sequence: T1 sequence with K72S, L73I, V76P

In assay [12] the target is T12, PUM1 PUF domain R3-ASE C935A + R936S + Q939E (UniProt Q14671).
T12 sequence: T1 sequence with K72N, L73Y, V76Q, C108A, R109S, Q112E

In assay [13] the target is T13, PUM1 PUF domain R3-FCV C935F + R936C + Q939V (UniProt Q14671).
T13 sequence: T1 sequence with K72N, L73Y, V76Q, C108F, R109C, Q112V

In assay [14] the target is T14, PUM1 PUF domain R3-FSS C935F + R936S + Q939S (UniProt Q14671).
T14 sequence: T1 sequence with K72N, L73Y, V76Q, C108F, R109S, Q112S

The target in assay [15] is T15, PUM1 PUF domain R3-GPE C935G + R936P + Q939E (UniProt Q14671).
T15 sequence: T1 sequence with K72N, L73Y, V76Q, C108G, R109P, Q112E

For assay [16], the target named is T16, PUM1 PUF domain R3-RPH C935R + R936P + Q939H (UniProt Q14671).
T16 sequence: T1 sequence with K72N, L73Y, V76Q, C108R, R109P, Q112H

In assay [17] the target is T17, PUM1 PUF domain R3-RPW C935R + R936P + Q939W (UniProt Q14671).
T17 sequence: T1 sequence with K72N, L73Y, V76Q, C108R, R109P, Q112W

In assay [18] the target is T18, PUM1 PUF domain R3-RVQ C935R + R936V (UniProt Q14671).
T18 sequence: T1 sequence with K72N, L73Y, V76Q, C108R, R109V

Assay [19] addresses T19, PUM1 PUF domain R3-TCE C935T + R936C + Q939E (UniProt Q14671).
T19 sequence: T1 sequence with K72N, L73Y, V76Q, C108T, R109C, Q112E

Assay [20] deals with T20, PUM1 PUF domain R3-YSG C935Y + R936S + Q939G (UniProt Q14671).
T20 sequence: T1 sequence with K72N, L73Y, V76Q, C108Y, R109S, Q112G

Changes are numbered by the printed parent chain. Some of the results follow. At the low end of the ranking the order means little. Some results are limits rather than exact numbers.

Regarding “GGCUAGAACUAGUGGAUCCCCCGGCGCCCGGCGGCUCGAGCCCGGGUAAGUGUAAAUAGUCUGCAUGCCGCCGGGCGCCAUGCCUGCAGGUCGACUCUAGAAAACAUG”, the binding signal (log2 enrichment (interaction score)) is -5 in assay [1]; under -8.65 in assay [2]; under -8.05 in assay [3]; under -7.68 in assay [4]; -7.51 in assay [5]; under -6.12 in [6]. Further, the binding signal (log2 enrichment (interaction score)) in assay [7] was -6.16; in assay [8] it was under -9; in assay [9], under -9.06; in assay [10], under -7.32; in assay [11] it was under -6.21; in assay [12], under -7.54. Also, the binding signal (log2 enrichment (interaction score)) was -3.29 in assay [13]; under -8.9 in [14]; -2.66 in [15]; -2.55 in [16]; -3.61 in [17]; under -8.04 in [18]. Also, the binding signal (log2 enrichment (interaction score)) was -3.2 in assay [19] and -3.35 in [20].
For “GGCUAGAACUAGUGGAUCCCCCGGCGCCCGGCGGCUCGAGCCCGGGUAAGUGUAAAAAGUCUGCAUGCCGCCGGGCGCCAUGCCUGCAGGUCGACUCUAGAAAACAUG”, the binding signal (log2 enrichment (interaction score)) was under -9.16 in assay [1]; under -8.45 in assay [2]; under -8.65 in [3]; under -8.09 in assay [4]; under -9.01 in [5]; under -7.36 in [6]. Also, the binding signal (log2 enrichment (interaction score)) was under -8 in assay [7]; under -8.6 in [8]; under -9.29 in [9]; under -7.22 in assay [10]; -6.02 in assay [11].
Take “GGCUAGAACUAGUGGAUCCCCCGGCGCCCGGCGGCUCGAGCCCGGGUAAGUGUAAUUAGUCUGCAUGCCGCCGGGCGCCAUGCCUGCAGGUCGACUCUAGAAAACAUG”: the binding signal (log2 enrichment (interaction score)) in assay [12] was under -6.71; in [13] it was under -6.38; in assay [14], -2.43; in assay [15] it was -5.35; in assay [19], under -7.24; in assay [20] it was -3.18.
In the case of “GGCUAGAACUAGUGGAUCCCCCGGCGCCCGGCGGCUCGAGCCCGGGUAAGUGUAAGUAGUCUGCAUGCCGCCGGGCGCCAUGCCUGCAGGUCGACUCUAGAAAACAUG”, the results for the binding signal (log2 enrichment (interaction score)) in assay [16], in assay [17] and in assay [18] were under -8, under -7.2 and -2.22, respectively.
